Data from paper PMC8881833.
These are yes or no findings as the source states them, for the method shown. Binding seen in cells or lysates may run through a third protein.

Biological target: HA-p62 mutant fragment (Δ230–440) (UniProt Q13501)
Assay: co-IP; 293 T cells transfected with HA-p62 wild type or a deletion mutant; IP with anti-HA, blots with anti-P62 and anti-P53

binding: no binding
Substance: p53 (detected with anti-p53 in 293 T cells transfected with HA-p62 constructs) (from UniProt P04637 1-393)
